Hit rate of the full screen: of about 52,000 sequences, about 210 (0.4%) were called active.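 How the source made its calls: active means gene whose silencing raises cell survival under the drug, median off-target-corrected z-score across its silencing RNAs 2 or more; inactive means the rest.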 The list shows a part of the results.
Test: Resistance to Poly (ADP-Ribose) Polymerase inhibitor: Gene Identification via Genome-wide siRNA Screen
Details: mouse BRCA2 R2336H ES cells, olaparib, CellTiter-Glo viability; active compounds read high
How it was run: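 Mouse BRCA2 R2336H ES cells were reverse-transfected with siRNA (20 nM final), treated at 48 h with 500 nM olaparib, and read by CellTiter-Glo after 72 h. Scores: MAD-based z per siRNA, median per gene, seed off-target correction.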

Row | Sequence | z-score
1 | CCACCACAAGUUUCCAUGUTT against Rnf17 | inactive: -0.286
2 | CCCAUGCUAGAGAGAAUUCTT against D10628 | inactive: 0.896
3 | GCUUCUCAGAAGAUGUACUTT against Rgs16 | inactive: -1.7
4 | GGCAUUUAAAUCUGUGUGUTT against Slc39a6 | inactive: 0.328
5 | CCAAGUCUUUGCCUACGUGTT against 1700022L09Rik | inactive: 2.71
6 | GGUUUUUGUCCCAUCUUGGTT against D730019B10Rik | inactive: -0.207
7 | GCUUACCUGAGAUGUGCUCTT against Dbx1 | inactive: -0.36
8 | GGGUAAAAUUAUUCUCAGGTT against 1600012H06Rik | inactive: 0.492
9 | GGUGGUUCACAAAUACUGUTT against Agtpbp1 | inactive: -0.765
10 | GGAAGAUGAAAGAAGAGAGTT against Punc | inactive: -0.519
11 | GCACCUUCCAUCGGAAUGCTT against 1110034B05Rik | inactive: -0.469
12 | GCCAUCACGAAAAUUCUAGTT against Tufm | inactive: 0.859
13 | GGAAGAGUGGGAGAAAAUATT against H2-M9 | inactive: -2.66
14 | CCCAGAUACCUGGAAAACGTT against 5730507A09Rik | inactive: -0.133
15 | GGUUGAAGGCCAAUUCAAATT against Lrrc10 | inactive: 0.194
16 | GGGCAACAUUUUUCAGUGCTT against Prox1 | inactive: -0.785
17 | GAGAGAGCAGAGCUUGAGATT against Angptl6 | inactive: -1.12
18 | CCAACCAAAGAUGAAUUGUTT against Usp19 | inactive: 0.727
19 | GGCAUGGUGAAUGAAAUUGTT against Calml3 | inactive: -0.596
20 | CCCAAAUCCUACGAAGCCUTT against 1200003E16Rik | inactive: 1.59
21 | CCGAUUCACUGUCCCUUUATT against AI132487 | inactive: 0.58
22 | GGAUUGACCUCCAAGGACATT against Osgep | inactive: -2.19
23 | GGGUUUGGAUGCAGCAUCUTT against Gata1 | inactive: 0.598
24 | CCCAAACUAUGUUCUUGAATT against Tll2 | inactive: 1.03
25 | CCUACUACCUCUGUCAACATT against Nme4 | inactive: 1.46
26 | GAUUGUCACCACCUUAAGATT against Chchd5 | inactive: 0.272

Row | Sequence | z-score
27 | GCUGAUAGGCACGAGUAUCTT against 4930430F08Rik | inactive: 0.602
28 | GGAGGAACAAUCAUCUAUATT against Ripk2 | inactive: 0.105
29 | GGGAACCUUGCUAUUUGGATT against Gucy2c | inactive: 1.73
30 | GCUUGAAGUCUCUUGCUGGTT against Nhlrc2 | inactive: 0.484
31 | GCGGCAGUAGCCAGAAAAATT against Rhox7 | inactive: -3.29
32 | GCGAUGAGUAUAUCAAGUUTT against Hdac2 | inactive: -0.83
33 | GCUCUAACGUAUGAUGCCATT against Nde1 | inactive: -0.344
34 | GGAGCAGGUAAACAUGUCUTT against Fpr-rs7 | inactive: 0.964
35 | GGAAUAUAUCUGCUUUAUCTT against Gphb5 | inactive: 0.414
36 | GGCACCCGAGUAGGUCAAATT against Carhsp1 | inactive: -0.139
37 | GGAGAAAGGUGGUACCAAGTT against Deaf1 | inactive: -2.56
38 | GGAGAUGUAUGCCGCUUAUTT against Lcat | inactive: 1.93
39 | CCAGCUUCCUCGUAAGUGATT against Hsf4 | inactive: -2.13
40 | GGACCUUGGUAAUAGAAAGTT against Pdzk4 | inactive: -0.541
41 | GGACAUGGUCUCCAAACUATT against Pgd | inactive: -2.75
42 | GGUUCAGAAGUCUAUGUCUTT against 2700038N03Rik | inactive: 1.14
43 | GGAUCUUACAGUUUCGUCUTT against Oas3 | inactive: 0.216
44 | GGGUUAUAAGAAAAAGUACTT against Krt2-20 | inactive: -0.0269
45 | GGCUGUCCGUACCUAUAAATT against Cpb1 | inactive: 3.31
46 | GAGUCUUGUUUGAAAGAACTT against F730035P03Rik | inactive: -0.683
47 | GGAGCUUUCAGCCUAAUUUTT against Prkcdbp | inactive: -0.275
48 | UUUCGAGCUGAUCCAUGAGTT against 1700021K02Rik | inactive: 2.26
49 | GGAGACUCCAUACCAGUGUTT against 2810439M05Rik | inactive: 1.01
50 | GGAAAGGCUGUUUCCUACCTT against Atox1 | inactive: 2.62
51 | GGCAUUAAUCCAGUCUUGGTT against 8430417A20Rik | inactive: 0.71
52 | GGGUUACAGAAUCUGUUAATT against Nup153 | inactive: 1.16

Row | Sequence | z-score
53 | GGGUGAAGAGAGAUGAAAATT against Krt2-20 | inactive: 0.28
54 | GGAGAAUGAACAGACAGAGTT against Slc39a14 | inactive: -0.694
55 | GGAGUCCUUUAAGAUUAUATT against Pex13 | inactive: -0.29
56 | GGAAUAUGACUUCAAGAUGTT against Lmnb2 | inactive: 0.116
57 | GGGCAUGAAGAUCAAGAAGTT against 4932417D18Rik | inactive: 2.85
58 | GGUAAAAGUCGAUGGCCAGTT against Calr3 | inactive: 0.605
59 | GGACAAGGAGGAUUUCUUCTT against Tusc4 | inactive: -0.361
60 | GGUGUUUGUGAAGGAGCAGTT against 5730593F17Rik | inactive: 0.644
61 | GGUGCAAUCCUACAGUUCUTT against 1110008P14Rik | inactive: -2.24
62 | CCCAGAAUUGAACUAAAAATT against Mrpl32 | inactive: 2.35
63 | GCUAUUCGUACAUAUGAUUTT against AB041550 | inactive: 0.739
64 | CGGGUGUGCCGUGUUUGUATT against 3110005G23Rik | inactive: -0.353
65 | GCACUUUGUGCUAUAUAAGTT against Mapk14 | inactive: -1.97
66 | GACAAAGUAACAUCUGUAUTT against Olfr1447 | inactive: -1.15
67 | GGAAAAUGUCAAAAUUGGCTT against Rfc4 | inactive: -0.441
68 | AGUAUUCUUUGCUUUCCUUTT against Olfr822 | inactive: -0.833
69 | GGCUACCGUGAAGAUGGAGTT against Fabp6 | inactive: -0.576
70 | CCGUCAAAACAUUACCAUUTT against BC034076 | inactive: 0.182
71 | GGGUGACUUAGAAUUCUGUTT against Diras1 | inactive: 0.848
72 | UGAUAUUUGGUGUAUUCAGTT against Olfr972 | inactive: 1.05
73 | GCUGAAACAUCGGUAUGAGTT against Pla2g4c | inactive: 0.762
74 | GGUGCUAGUGGAUCAAACGTT against BC051227 | inactive: 1.65
75 | CCUAGAGCUUUUCAGAAUATT against 2410005K20Rik | inactive: -0.874
76 | GGUCCUUUGUCUAUAUCAATT against Suv39h1 | inactive: 4.56
77 | CCAAAAAAUCCUAUACUCUTT against Cdh8 | inactive: 0.896
78 | CCGAGUAAGUUUAACUAAGTT against 9430028I06Rik | inactive: 0.152

Row | Sequence | z-score
79 | GGGAAUACAUUUGAGAUGATT against Ptgfrn | inactive: -0.0463
80 | GGAUGUCUUUUUAAGGUUUTT against Cri1 | inactive: -0.279
81 | GGGAGAAAUACUCUUGUUATT against Apg4a | inactive: -0.0377
82 | GGGCAGAAGUCGUGUUUCUTT against Dorz1 | inactive: -1.21
83 | GGAAGAUGCCUUUUCCAAGTT against Syt1 | inactive: -0.477
84 | GCGCAUCAGAGUCUCAUAATT against Hivep1 | inactive: 0.39
85 | GGCAUGUGAUCUACCAAUCTT against Ly6g5b | inactive: -0.642
86 | GGAGCAGAACAUUAUCUUCTT against Tnn | inactive: 0.437
87 | CCAUUCCUGUCCCUUAAUATT against Tmem55b | inactive: -0.0373
88 | GGCAAUCGCUUUGAGCCAUTT against Hnrpm | inactive: -0.786
89 | CCUAUCUAUGACCUCACAUTT against Rorb | inactive: 0.397
90 | CCGAAGACUAGCUAAUUUUTT against Sult1c1 | inactive: 0.117
91 | CCUGAGGUUACAAGACGGUTT against Dll3 | inactive: 0.0094
92 | GCGGCUGAUACACUUUGUATT against Maob | inactive: -0.424
93 | GGCUCAGAAACAACAGGCUTT against Sh2d3c | inactive: 0.745
94 | GCAUUAUGGAUUGACCUAUTT against Noto | inactive: -0.496
95 | GGUAUGUUCAAGAUCAAUATT against 2810013E07Rik | inactive: -1.23
96 | GGAUUACGAGAAACUUGGUTT against 1110025F24Rik | inactive: 0.0176
97 | GCACAUUCAACUUUGACCATT against 2410008K03Rik | inactive: 0.851
98 | GCACUACAAAUUUAUACCUTT against 2610101N10Rik | inactive: 1.36
99 | CCCACAUAAAAAACAGUUGTT against Pdcd1lg1 | inactive: -0.44
100 | GGAGUUAGUGAGCUUUGAGTT against Zfp426 | inactive: -0.787
101 | GCUAUACAUCGAGUUUGUCTT against 2410014A08Rik | inactive: 0.00708
102 | GGGAGAUGAGUUUUCUGAUTT against Cyp2c70 | inactive: -0.974
103 | GGUACAGAUGGUGUACAAUTT against 4930595M18Rik | inactive: -0.359
